Reference: PubChem BioAssay AID743172 (National Center for Advancing Translational Sciences (NCATS), 2013)
The entries are a selection whose mix differs from that of the whole data set. Where no call is shown, the source filed none. Results filed as inconclusive are left out. Activity calls are given as the source filed them. Calls follow the shape of the dose curve; as a rule, active = well fitted activation curve with a large enough effect; inconclusive = small, poorly fitted or top-dose-only effect; inactive = no such curve, though single readings can be large or run the other way.

Experiment: Extended Characterization of HPGD Inhibitors: PGE2 Assay in LNCaP Cells
Conditions: PGE2 HTRF level, 16 h; at 100 µM (top of the series)
Text: The central role of HPGD is to inactivate prostaglandins such as prostaglandin E2 (PGE2) or prostaglandin D2 (PGD2). These prostaglandins are involved in a number of processes, including inflammation, differentiation, and cellular signaling, which makes HPGD an important target for pharmacological intervention. A number of prostaglandins of particular biological interest have been identified as substrates of HPGD. […] Over-production of PGE2 has been reported to promote tumor-associated neovascularization, cell proliferation, and tumor growth. […] In this orthogonal assay, we set out to measure if compounds were able to increase PGE2 production NIH Chemical Genomics Center [NCGC] NIH Molecular Libraries Probe Centers Network [MLPCN] MLPCN Grant: MH084681 Assay Submitter (PI): Structural Genomics Consortium
A549 cells, LNCaP cells or media were dispensed in 384-well plates (ProxiPlate-384 Plus, PerkinElmer, Shelton, CT) at 5,000 cells/9.9 uL/well using a CappAero384 multichannel pipette (Odense, Denmark). […] Time-resolved fluorescence intensity (320 nm excitation, 615 and 665 nm emission) was measured using an Envision plate reader (PerkinElmer). Data was expressed as the ratio of 665 nm/615 nm emissions. Concentration (pg/mL) of samples were calculated from a 4-parameter logistic calibration curves of the PGE2 standards.

Row | Compound | PGE2 level, % of control (higher = increase)
1 | CCOC(=O)c1ccc(-n2cnc3cc(C(=O)N4CCCCC4)ccc32)cc1 | inactive: 450%
2 | Cc1cccc(-n2cnc3cc(C(=O)N4CC(C)CC(C)C4)ccc32)c1 (configuration not stated) | 197%
